Results are given in words; binding and its absence hold for the method and conditions named. Binding seen in cells or lysates may run through a third protein. These calls come from enrichment with a bait or labelling near it, and not all partners need be listed.
Target: USP28 (Ubiquitin Specific Peptidase 28) (human (endogenous in HCT116)) (UniProt Q96RU2)
Assay: affinity purification with mass spectrometry

The chains behind the UniProt entries cited, without tags or fusion partners.
UniProt Q96RU2: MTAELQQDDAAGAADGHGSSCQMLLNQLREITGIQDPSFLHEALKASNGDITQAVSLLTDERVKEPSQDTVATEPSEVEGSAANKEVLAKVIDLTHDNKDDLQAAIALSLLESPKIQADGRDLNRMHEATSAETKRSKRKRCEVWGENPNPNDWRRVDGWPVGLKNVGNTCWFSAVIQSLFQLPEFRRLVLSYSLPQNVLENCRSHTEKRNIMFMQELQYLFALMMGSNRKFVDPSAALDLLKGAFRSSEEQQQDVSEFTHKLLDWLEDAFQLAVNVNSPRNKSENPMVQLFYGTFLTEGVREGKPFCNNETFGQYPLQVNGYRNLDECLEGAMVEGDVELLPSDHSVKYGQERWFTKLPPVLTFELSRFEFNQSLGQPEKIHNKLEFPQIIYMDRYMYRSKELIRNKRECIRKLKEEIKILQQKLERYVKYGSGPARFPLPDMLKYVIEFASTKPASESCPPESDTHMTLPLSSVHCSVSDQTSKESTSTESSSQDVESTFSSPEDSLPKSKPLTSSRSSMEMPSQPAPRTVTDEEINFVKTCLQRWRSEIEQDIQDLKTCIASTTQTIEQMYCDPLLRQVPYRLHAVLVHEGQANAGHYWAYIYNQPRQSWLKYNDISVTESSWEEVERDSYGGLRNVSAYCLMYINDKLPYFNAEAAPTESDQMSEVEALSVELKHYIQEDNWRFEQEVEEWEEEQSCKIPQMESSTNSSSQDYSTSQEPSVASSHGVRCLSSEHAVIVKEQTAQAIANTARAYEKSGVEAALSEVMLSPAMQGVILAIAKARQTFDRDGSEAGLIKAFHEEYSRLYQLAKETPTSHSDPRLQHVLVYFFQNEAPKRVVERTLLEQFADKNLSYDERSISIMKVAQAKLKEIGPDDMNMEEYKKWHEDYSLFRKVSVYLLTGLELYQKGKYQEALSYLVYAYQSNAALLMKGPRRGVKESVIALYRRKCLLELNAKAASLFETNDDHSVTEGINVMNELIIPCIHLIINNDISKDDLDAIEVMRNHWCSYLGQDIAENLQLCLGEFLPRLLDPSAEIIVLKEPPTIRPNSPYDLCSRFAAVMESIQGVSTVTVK
UniProt Q14980: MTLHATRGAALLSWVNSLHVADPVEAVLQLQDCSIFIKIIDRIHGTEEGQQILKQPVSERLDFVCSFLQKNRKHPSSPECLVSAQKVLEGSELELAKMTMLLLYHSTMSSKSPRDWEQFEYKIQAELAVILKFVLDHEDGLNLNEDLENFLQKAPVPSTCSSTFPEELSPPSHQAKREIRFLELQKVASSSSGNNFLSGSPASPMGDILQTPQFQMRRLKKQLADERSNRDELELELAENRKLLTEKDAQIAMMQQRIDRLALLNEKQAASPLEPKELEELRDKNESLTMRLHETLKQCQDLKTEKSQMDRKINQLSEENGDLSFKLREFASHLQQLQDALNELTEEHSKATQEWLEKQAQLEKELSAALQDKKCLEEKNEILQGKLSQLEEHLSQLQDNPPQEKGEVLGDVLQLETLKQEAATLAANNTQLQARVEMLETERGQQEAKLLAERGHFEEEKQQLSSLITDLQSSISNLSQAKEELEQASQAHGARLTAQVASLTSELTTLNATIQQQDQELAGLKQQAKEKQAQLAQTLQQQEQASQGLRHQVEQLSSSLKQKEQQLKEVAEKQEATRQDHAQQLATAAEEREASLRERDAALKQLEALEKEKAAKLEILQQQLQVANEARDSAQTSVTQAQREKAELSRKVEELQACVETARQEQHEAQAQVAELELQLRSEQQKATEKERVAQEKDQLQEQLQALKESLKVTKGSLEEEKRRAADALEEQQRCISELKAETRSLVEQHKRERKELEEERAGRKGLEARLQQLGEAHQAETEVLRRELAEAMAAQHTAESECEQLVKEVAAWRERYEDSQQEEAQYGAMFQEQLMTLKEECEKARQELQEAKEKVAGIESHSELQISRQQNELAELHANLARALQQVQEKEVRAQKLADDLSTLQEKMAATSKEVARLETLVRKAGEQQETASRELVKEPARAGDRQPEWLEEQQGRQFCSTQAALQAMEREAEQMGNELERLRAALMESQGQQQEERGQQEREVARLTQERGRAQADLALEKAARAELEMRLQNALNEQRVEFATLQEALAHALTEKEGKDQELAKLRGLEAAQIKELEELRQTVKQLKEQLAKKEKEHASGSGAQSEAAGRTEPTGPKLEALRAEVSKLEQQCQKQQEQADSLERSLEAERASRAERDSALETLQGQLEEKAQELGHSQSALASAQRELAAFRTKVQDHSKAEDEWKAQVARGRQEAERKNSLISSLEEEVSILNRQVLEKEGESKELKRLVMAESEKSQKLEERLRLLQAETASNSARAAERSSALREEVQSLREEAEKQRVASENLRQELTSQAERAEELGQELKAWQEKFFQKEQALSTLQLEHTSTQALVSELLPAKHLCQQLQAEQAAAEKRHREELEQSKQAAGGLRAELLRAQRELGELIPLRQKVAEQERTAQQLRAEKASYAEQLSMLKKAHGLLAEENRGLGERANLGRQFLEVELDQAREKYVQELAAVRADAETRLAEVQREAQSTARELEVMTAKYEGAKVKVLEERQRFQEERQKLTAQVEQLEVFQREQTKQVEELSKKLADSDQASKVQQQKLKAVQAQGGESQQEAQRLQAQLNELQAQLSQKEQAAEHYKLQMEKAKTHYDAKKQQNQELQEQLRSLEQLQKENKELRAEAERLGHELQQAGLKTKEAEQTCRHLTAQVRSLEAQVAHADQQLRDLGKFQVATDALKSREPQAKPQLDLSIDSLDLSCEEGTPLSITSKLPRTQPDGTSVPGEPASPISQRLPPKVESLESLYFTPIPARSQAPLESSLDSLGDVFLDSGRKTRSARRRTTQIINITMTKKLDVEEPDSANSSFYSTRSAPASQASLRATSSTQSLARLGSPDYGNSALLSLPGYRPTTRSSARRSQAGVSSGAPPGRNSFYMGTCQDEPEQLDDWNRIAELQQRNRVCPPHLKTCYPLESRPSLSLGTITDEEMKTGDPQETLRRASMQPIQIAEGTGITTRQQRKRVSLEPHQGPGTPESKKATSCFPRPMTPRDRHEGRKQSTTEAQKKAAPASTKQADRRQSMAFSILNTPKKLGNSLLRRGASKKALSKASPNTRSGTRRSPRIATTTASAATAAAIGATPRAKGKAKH
UniProt Q14676: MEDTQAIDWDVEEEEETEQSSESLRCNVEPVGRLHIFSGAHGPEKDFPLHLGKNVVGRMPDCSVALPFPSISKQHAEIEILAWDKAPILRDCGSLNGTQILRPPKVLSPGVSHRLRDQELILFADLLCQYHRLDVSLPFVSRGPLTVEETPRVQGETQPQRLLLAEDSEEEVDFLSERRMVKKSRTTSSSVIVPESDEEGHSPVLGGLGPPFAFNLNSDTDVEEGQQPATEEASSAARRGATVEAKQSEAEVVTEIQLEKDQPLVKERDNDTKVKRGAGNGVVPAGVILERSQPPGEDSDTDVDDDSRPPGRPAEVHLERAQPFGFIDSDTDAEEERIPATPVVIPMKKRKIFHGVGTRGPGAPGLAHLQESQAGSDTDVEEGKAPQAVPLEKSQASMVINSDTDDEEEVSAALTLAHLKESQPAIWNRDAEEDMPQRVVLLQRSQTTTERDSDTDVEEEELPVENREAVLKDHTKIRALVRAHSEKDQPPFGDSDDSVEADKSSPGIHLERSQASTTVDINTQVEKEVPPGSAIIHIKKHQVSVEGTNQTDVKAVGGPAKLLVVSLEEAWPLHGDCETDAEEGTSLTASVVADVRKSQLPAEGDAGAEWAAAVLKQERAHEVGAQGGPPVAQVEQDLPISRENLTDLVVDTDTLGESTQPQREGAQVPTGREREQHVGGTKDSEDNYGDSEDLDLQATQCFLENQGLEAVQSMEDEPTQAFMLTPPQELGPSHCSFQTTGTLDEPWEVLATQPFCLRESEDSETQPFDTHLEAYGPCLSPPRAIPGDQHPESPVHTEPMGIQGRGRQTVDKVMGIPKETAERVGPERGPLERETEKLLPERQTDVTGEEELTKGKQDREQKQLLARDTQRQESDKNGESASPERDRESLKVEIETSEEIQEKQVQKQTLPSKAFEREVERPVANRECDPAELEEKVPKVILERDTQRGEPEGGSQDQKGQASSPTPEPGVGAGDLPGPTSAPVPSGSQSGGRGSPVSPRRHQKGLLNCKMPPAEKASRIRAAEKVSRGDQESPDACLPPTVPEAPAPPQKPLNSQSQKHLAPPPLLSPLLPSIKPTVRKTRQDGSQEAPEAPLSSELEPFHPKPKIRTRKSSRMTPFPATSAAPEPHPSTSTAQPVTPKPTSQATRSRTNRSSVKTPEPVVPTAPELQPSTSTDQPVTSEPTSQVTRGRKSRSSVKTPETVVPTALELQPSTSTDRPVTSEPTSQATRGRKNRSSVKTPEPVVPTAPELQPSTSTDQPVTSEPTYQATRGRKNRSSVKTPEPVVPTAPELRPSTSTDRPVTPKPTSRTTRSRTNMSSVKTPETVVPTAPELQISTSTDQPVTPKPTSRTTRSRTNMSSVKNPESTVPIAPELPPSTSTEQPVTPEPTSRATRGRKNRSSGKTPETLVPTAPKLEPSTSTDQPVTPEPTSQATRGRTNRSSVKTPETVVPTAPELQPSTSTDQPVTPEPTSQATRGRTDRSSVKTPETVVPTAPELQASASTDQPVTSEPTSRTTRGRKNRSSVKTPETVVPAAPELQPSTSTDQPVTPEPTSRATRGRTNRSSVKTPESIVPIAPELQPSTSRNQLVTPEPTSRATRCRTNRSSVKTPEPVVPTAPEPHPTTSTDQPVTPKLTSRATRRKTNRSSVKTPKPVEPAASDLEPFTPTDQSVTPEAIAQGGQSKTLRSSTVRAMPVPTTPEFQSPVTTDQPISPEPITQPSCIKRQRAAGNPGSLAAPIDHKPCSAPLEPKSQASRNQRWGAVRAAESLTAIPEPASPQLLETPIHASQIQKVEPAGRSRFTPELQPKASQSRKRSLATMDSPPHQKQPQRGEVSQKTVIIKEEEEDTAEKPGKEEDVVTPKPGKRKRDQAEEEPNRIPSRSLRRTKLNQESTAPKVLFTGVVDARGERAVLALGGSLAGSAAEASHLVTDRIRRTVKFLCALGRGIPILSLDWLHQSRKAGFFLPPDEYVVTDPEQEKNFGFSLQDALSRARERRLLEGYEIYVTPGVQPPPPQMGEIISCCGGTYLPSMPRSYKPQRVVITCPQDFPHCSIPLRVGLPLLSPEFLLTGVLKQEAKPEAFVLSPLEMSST

| Substance | binding |
| --- | --- |
| Nuclear mitotic apparatus protein 1 (NuMA1) (from UniProt Q14980 1-2115) | binds |
| mediator of DNA damage checkpoint 1 (MDC1) (from UniProt Q14676 1-2089) | binds |

— doi:10.1101/2020.09.18.303834
